# PubChem BioAssay AID1259308 | NCATS – 2017
# Test: 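Candidate targets for better recombinant protein yield in mammalian cells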 (primary screen)
# Cell system: human HEK293 embryonic kidney cells stably expressing firefly luciferase (HEK-CMV-Luc2-Hygro)
# Knock-down reagent: single siRNA against human genes, 0.8 pmol siRNA per well
# Time to read-out: 72 h
# Measurement: 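Reporter luminescence and viable-cell signal on separate replicate plates, given as percent of non-targeting control and median/MAD z-scores, plus per-cell luciferase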
# Scale: total luciferase, z-score and total luciferase, % of control: higher = more reporter protein produced; luciferase per cell, z-score: higher = more reporter output per viable cell; viable cells, % of control: higher = more viable cells
# Hit rule: 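An siRNA counts as active if its total luciferase robust z-score exceeds 3; genes with two or more such siRNAs out of three were retested with fresh siRNAs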
# Meaning of the calls: active = raised luciferase; inactive = no rise
# The whole screen tested about 59,000 reagents; shown is a random part of them. Of all reagents, about 1,510 (2.6%) are marked active. 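Calls use total luciferase alone and ignore viability, so some active siRNAs may act by altering cell number.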 Reagent sequences are not shown.
gene,PubChem SID,"total luciferase, z-score","total luciferase, % of control","luciferase per cell, z-score","viable cells, % of control",outcome
VEGFB (vascular endothelial growth factor B),SID160718742,0.192,85.7,0.659,80.5,inactive
VEGFB (vascular endothelial growth factor B),SID160718743,-0.785,66.3,-0.761,90.5,inactive
VEGFB (vascular endothelial growth factor B),SID160718744,1.21,106,1.48,80.3,inactive
KLF6 (KLF transcription factor 6),SID160746731,4.51,171,2.78,92.1,active
KLF6 (KLF transcription factor 6),SID160746741,0.429,90.4,0.236,94.9,inactive
KLF6 (KLF transcription factor 6),SID160746750,-1.15,59,-0.672,78.7,inactive
GPX4 (glutathione peroxidase 4),SID160773957,1.29,108,1.22,87.1,inactive
GPX4 (glutathione peroxidase 4),SID160773967,1.67,115,1.56,85.2,inactive
GPX4 (glutathione peroxidase 4),SID160773977,0.783,97.5,1.59,71.7,inactive
VPS13B (vacuolar protein sorting 13 homolog B),SID160759538,-0.452,72.9,-0.329,88.8,inactive
VPS13B (vacuolar protein sorting 13 homolog B),SID160759539,-1.7,48.2,-2.11,93.8,inactive
VPS13B (vacuolar protein sorting 13 homolog B),SID160759540,0.337,88.6,-0.496,113,inactive
SLC15A4,SID160755872,-1.17,58.5,-0.692,78.5,inactive
SLC15A4,SID160755873,-0.594,70.1,-0.797,96.6,inactive
SLC15A4,SID160755874,0.261,87.1,0.249,91.1,inactive
LINC01061 (long independently transcribed non-coding RNA 1061),SID160725338,0.00764,82,0.874,72.8,inactive
LINC01061 (long independently transcribed non-coding RNA 1061),SID160725340,-1.07,60.5,-1.1,90.4,inactive
LINC01061 (long independently transcribed non-coding RNA 1061),SID160767173,1.02,102,0.606,97.4,inactive
"CRIPTO (cripto, EGF-CFC family member)",SID160717878,-0.635,69.2,0.377,70.1,inactive
"CRIPTO (cripto, EGF-CFC family member)",SID160717879,1.38,109,1.25,88,inactive
"CRIPTO (cripto, EGF-CFC family member)",SID160717880,-0.467,72.6,-1.07,107,inactive
BEX1 (brain expressed X-linked 1),SID160733629,-0.302,75.9,0.872,67.4,inactive
BEX1 (brain expressed X-linked 1),SID160744541,-0.771,66.6,-0.893,94.1,inactive
BEX1 (brain expressed X-linked 1),SID160744543,0.216,86.2,0.262,89.9,inactive

Look-ups from the entries so far:
Result for BEX1 (brain expressed X-linked 1) [SID160733629] in “total luciferase, z-score”: -0.302
For “outcome”, VEGFB (vascular endothelial growth factor B) [SID160718744] is entered as inactive
